Measured values published in patent US20090233851A1, “Insulin Resistance Improver” (priority 2005, published 2009).
For at least one compound, name, drawing or mass did not settle the structure.

System: KK-Ay/Ta Jcl mice
Assay: GLP-1(7-36) amide repeatedly administered to KK-Ay/Ta Jcl insulin resistance mouse model over two weeks (blood glucose, glucose uptake by tissues)
Format: in vivo
[1] = 14 days once daily, 30 minutes after oral glucose/3H-deoxyglucose load, vs control group

Cc1c(C)c2c(c(C)c1O)CCC(C)(COc1ccc(CC3SC(=O)NC3=O)cc1)O2 (centres unmarked) [troglitazone]
serum glucose levels [1]: No significant difference
serum radioactivity [1]: No significant difference
uptake of radioactivity by liver [1]: No significant difference
postprandial blood glucose levels (GLP-1(7-36) amide 500 μg/kg s.c. or troglitazone 30 mg/kg i.p. once daily, Day 7 and Day 13, vs control group): more significant than in the troglitazone group
fasting blood glucose levels (after 13 consecutive days once daily, fasted about 20 hours): The effect was comparable to troglitazone
